# Test results reported in article PMC5932847.
# Amino acid sequences for entries named in this document (tags omitted).
# UniProt P31749: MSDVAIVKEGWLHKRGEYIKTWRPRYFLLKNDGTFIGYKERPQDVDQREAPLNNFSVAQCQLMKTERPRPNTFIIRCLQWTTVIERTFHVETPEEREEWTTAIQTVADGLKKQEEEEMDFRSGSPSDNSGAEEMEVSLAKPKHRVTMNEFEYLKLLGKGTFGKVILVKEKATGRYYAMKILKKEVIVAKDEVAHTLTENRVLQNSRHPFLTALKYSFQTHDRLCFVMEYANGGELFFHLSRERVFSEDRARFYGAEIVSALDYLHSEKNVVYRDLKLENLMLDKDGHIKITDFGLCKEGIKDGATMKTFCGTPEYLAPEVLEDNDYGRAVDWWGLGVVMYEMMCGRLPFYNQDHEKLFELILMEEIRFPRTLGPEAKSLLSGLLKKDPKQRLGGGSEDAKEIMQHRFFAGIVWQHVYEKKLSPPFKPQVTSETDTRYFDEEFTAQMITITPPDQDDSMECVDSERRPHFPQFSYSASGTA
# UniProt P53396: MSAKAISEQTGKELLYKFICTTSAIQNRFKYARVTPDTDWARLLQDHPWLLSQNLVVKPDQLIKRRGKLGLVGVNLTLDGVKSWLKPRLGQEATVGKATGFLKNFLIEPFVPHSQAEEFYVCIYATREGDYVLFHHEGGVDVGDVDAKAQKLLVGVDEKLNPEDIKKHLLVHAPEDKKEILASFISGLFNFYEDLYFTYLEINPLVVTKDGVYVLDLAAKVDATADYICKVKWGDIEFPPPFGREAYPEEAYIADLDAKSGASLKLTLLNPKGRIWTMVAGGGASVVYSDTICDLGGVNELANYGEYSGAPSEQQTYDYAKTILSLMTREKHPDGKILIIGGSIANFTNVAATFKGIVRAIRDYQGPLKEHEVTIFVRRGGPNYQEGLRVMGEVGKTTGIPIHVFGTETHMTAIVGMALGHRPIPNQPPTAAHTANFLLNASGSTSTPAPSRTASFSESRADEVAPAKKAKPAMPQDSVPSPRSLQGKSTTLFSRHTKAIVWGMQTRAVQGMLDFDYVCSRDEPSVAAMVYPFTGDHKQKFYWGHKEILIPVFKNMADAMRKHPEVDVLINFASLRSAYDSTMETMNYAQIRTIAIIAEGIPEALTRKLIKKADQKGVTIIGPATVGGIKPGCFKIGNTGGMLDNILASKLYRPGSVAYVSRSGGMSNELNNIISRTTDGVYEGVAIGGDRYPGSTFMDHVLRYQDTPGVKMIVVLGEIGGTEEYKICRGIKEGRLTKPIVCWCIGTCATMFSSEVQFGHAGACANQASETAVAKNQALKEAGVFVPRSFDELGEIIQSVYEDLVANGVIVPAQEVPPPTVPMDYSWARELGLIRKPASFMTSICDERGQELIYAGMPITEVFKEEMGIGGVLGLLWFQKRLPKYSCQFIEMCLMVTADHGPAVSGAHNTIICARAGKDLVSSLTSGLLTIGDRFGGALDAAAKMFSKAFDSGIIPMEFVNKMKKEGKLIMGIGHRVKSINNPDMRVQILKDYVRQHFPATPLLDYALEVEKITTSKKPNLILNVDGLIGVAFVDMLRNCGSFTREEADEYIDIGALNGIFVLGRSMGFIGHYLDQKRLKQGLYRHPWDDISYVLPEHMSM
# UniProt O43684: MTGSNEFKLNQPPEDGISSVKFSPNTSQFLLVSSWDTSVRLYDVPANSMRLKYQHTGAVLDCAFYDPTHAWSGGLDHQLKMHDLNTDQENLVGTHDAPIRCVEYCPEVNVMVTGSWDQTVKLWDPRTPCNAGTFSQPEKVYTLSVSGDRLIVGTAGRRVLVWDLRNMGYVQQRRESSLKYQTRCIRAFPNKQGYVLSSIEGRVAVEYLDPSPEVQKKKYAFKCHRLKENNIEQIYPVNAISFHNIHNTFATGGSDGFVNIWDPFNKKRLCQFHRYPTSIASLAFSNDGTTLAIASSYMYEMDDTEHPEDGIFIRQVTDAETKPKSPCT
# UniProt Q9BWD1: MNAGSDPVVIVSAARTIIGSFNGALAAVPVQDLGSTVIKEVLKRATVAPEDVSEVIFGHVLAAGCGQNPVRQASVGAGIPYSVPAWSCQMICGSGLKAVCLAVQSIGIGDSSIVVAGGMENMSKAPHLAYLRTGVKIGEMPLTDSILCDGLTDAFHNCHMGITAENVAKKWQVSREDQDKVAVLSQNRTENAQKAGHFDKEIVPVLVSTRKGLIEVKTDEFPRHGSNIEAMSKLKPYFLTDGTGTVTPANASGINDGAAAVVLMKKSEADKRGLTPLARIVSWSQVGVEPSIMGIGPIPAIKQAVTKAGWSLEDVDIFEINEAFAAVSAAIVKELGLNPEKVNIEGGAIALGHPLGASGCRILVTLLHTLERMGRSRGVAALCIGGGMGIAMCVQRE
# UniProt P62993: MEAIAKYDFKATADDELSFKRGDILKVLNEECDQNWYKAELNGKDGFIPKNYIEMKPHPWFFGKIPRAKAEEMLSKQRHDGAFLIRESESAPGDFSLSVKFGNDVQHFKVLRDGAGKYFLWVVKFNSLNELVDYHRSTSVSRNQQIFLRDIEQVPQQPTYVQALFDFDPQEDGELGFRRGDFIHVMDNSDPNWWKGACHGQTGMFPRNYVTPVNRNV
# Where two headings read alike, the source gives them in different places. No constants are given. Whether binding was seen depends on the method and setting. In cells and extracts the contact can be indirect. These calls come from enrichment with a bait or labelling near it, and not all partners need be listed.
# Key:
# [1] = target: AKT1 with C-terminal Strep and HA tags (UniProt P31749); assay: affinity purification with mass spectrometry; AKT1 with C-terminal Strep and HA tags over-expressed in HEK293 cells, purified by the HA tag and by the Strep tag; SILAC labelling, cells treated or not with the AKT inhibitor MK-2206; LC-MS/MS; eGFP swapped for AKT1 as control
# [2] = target: AKT1 with C-terminal Strep and HA tags (UniProt P31749); assay: as above; remark: listed apart in the source
binding [1],binding [2],Molecule
binds,,citrate lyase (from UniProt P53396 1-1101) (enzyme)
binds,,BUB3 (from UniProt O43684 1-328)
binds,,ACAT2 (from UniProt Q9BWD1 1-397) (enzyme)
binds,,GRB2 (from UniProt P62993 1-217)
,binds,"PDHB (enzyme, UniProt P11177 31-359) LQVTVRDAINQGMDEELERDEKVFLLGEEVAQYDGAYKVSRGLWKKYGDKRIIDTPISEMGFAGIAVGAAMAGLRPICEFMTFNFSMQAIDQVINSAAKTYYMSGGLQPVPIVFRGPNGASAGVAAQHSQCFAAWYGHCPGLKVVSPWNSEDAKGLIKSAIRDNNPVVVLENELMYGVPFEFPPEAQSKDFLIPIGKAKIERQGTHITVVSHSRPVGHCLEAAAVLSKEGVECEVINMRTIRPMDMETIEASVMKTNHLVTVEGGWPQFGVGAEICARIMEGPAFNFLDAPAVRVTGADVPMPYAKILEDNSIPQVKDIIFAIKKTLNI"
